Measurements taken from PubChem BioAssay AID192 (DTP/NCI, 2004).
The list shows only some results of the screen, not a fair sample: it gathers tests that were run many times, whatever their T/C, doses with no T/C, and many T/C values between a quarter and a half above the control. Further doses and runs are listed elsewhere. T/C gives the treated animals as a percentage of the vehicle group. Some doses have a count of surviving animals in place of a T/C: the source holds a T/C of zero for them, seemingly a mark for toxic or unscored doses. Some doses without a T/C left all or most animals alive at the check, yet need not have been tolerated: survival well below the control is almost never listed, so the zero probably covers shortened survival too. Survivors were counted at the toxicity check, usually on the fifth day, unless a day is given; later deaths do not show. Schedules are NCI's codes, read here as Q, the interval in days (D) or hours (H), X, the number of doses. Some entries were tested several times; the values are given in rising order. Some schedule codes hold Z or #, which are not explained here. Where survival is the endpoint, this PubChem deposit counts one and a half times the control or more as active, and values a quarter to a half above the control carry no call in these data; other NCI protocols may use other cut-offs.

Tested on: BDF1 mice, B16 melanoma ip, median survival T/C
Test: NCI In Vivo Anticancer Drug Screen. Data for tumor model B16 Melanoma (intraperitoneal) in B6D2F1 (BDF1) mice
Settings: T/C endpoint: median survival time, higher T/C = longer survival
Procedure, shortened: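 Values are ratios of treated (T) to vehicle-control (C) measurements of survival or tumor size in tumor-bearing mice.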

[1] = dose: 25.0 mg/kg/injection, schedule: Q01DX009 (ip), vehicle: saline with Tween-80
[2] = dose: 200.0 mg/kg/injection, schedule: Q01DX009 (ip), vehicle: water
[3] = dose: 400.0 mg/kg/injection, schedule: Q01DX009 (ip), vehicle: water
[4] = dose: 100.0 mg/kg/injection, schedule: Q01DX009 (ip), vehicle: saline with Tween-80
[5] = dose: 100.0 mg/kg/injection, schedule: Q01DX009 (ip), vehicle: Klucel (hydroxypropylcellulose) (HPC)
[6] = dose: 200.0 mg/kg/injection, schedule: Q01DX009 (ip), vehicle: Klucel (hydroxypropylcellulose) (HPC)
[7] = dose: 25.0 mg/kg/injection, schedule: Q01DX009 (ip), vehicle: Klucel (hydroxypropylcellulose) (HPC)
[8] = dose: 400.0 mg/kg/injection, schedule: Q01DX009 (ip), vehicle: saline with Tween-80

CCC[CH2][Sn](=[S])[CH2]CCC
survivor count (dose: 3.12 mg/kg/injection, schedule: Q01DX009 (ip), vehicle: saline): 10 of 10 | survivor count (dose: 12.5 mg/kg/injection, schedule: Q01DX009 (ip), vehicle: other): 3 of 10 | survivor count (dose: 12.5 mg/kg/injection, schedule: Q01DX009 (ip), vehicle: saline with Tween-80): 10 of 10 and 6 of 6 | survivor count (dose: 12.5 mg/kg/injection, schedule: Q04DX003 (ip), vehicle: other): 12 of 12 | survivor count (dose: 25.0 mg/kg/injection, schedule: Q01DX009 (ip), vehicle: other): 1 of 10 | survivor count [1]: 0 of 6 and 3 of 10 | survivor count (dose: 25.0 mg/kg/injection, schedule: Q04DX003 (ip), vehicle: other): 12 of 12 | survivor count (dose: 50.0 mg/kg/injection, schedule: Q01DX009 (ip), vehicle: other): 0 of 10 | survivor count (dose: 50.0 mg/kg/injection, schedule: Q01DX009 (ip), vehicle: saline with Tween-80): 0 of 6 | survivor count (dose: 50.0 mg/kg/injection, schedule: Q04DX003 (ip), vehicle: other): 12 of 12

COc1cccc(/C=C/[N+](=O)[O-])c1OC
T/C (dose: 17.5 mg/kg/injection, schedule: Q01DX009 (ip), vehicle: saline with Tween-80): 125 % of control

CN(C)CCCNc1cc(O)c2c(c1O)C(=O)c1ccccc1C2=O
survivor count [2]: 8 of 10 | survivor count [3]: 8 of 10

CC12CCC3C(CCC4CC(OC(=O)Cc5ccc(N(CCCl)CCCl)cc5)CCC43C)C1CCC(=O)N2 (stereo not drawn)
T/C (dose: 3.0 mg/kg/injection, schedule: Q01DX009 (ip), vehicle: saline with Tween-80): 133 % of control | T/C (dose: 6.0 mg/kg/injection, schedule: Q01DX009 (ip), vehicle: saline with Tween-80): 134 % of control | T/C (dose: 6.0 mg/kg/injection, schedule: Q01DX009 (ip), vehicle: saline): 143 % of control | T/C (dose: 12.0 mg/kg/injection, schedule: Q01DX009 (ip), vehicle: saline with Tween-80): 145 % of control | survivor count (dose: 24.0 mg/kg/injection, schedule: Q01DX009 (ip), vehicle: saline with Tween-80): 9 of 10 | survivor count (dose: 24.0 mg/kg/injection, schedule: Q01DX009 (ip), vehicle: saline): 9 of 10

CCO/C=C1\SC(=S)N(c2ccc(C(=O)O)cc2)C1=O
survivor count [4]: 8 of 10 | survivor count (dose: 100.0 mg/kg/injection, schedule: Q04DX003 (ip), vehicle: saline with Tween-80): 9 of 10 | survivor count (dose: 200.0 mg/kg/injection, schedule: Q04DX003 (ip), vehicle: saline with Tween-80): 6 of 10 | survivor count (dose: 400.0 mg/kg/injection, schedule: Q04DX003 (ip), vehicle: saline with Tween-80): 2 of 10

C(C#CCN1CCOCC1)#CCN1CCOCC1
survivor count [1]: 7 of 10

Clc1sc2ccccc2c1Cl
survivor count [5]: 9 of 10 | survivor count [6]: 3 of 10

C1CCNCC1
survivor count (dose: 400.0 mg/kg/injection, schedule: Q01DX009 (ip), vehicle: saline): 9 of 10

Oc1cc2c3c(c1)c1cc4c(cc1c[n+]3CC2)OCO4
T/C (dose: 6.25 mg/kg/injection, schedule: Q01DX009 (ip), vehicle: distilled water + Tween-80): 127 % of control | T/C (dose: 12.5 mg/kg/injection, schedule: Q01DX009 (ip), vehicle: distilled water + Tween-80): 127 % of control | T/C (dose: 12.5 mg/kg/injection, schedule: Q01DX009 (ip), vehicle: water): 130 % of control | T/C (dose: 25.0 mg/kg/injection, schedule: Q01DX009 (ip), vehicle: water): 127 % of control | survivor count (dose: 50.0 mg/kg/injection, schedule: Q01DX009 (ip), vehicle: distilled water + Tween-80): 4 of 10

Cc1cc(C)nc(NC(=O)COc2ccc(Cl)cc2)c1
survivor count [7]: 9 of 10 | survivor count [5]: 9 of 10 | survivor count [6]: 7 of 10

CS(=O)(=O)Nc1ccc(Nc2c3ccccc3nc3cc(Cl)ccc23)cc1
T/C (dose: 0.75 mg/kg/injection, schedule: Q01DX009 (ip), vehicle: saline with Tween-80): 125 % of control | T/C (dose: 1.5 mg/kg/injection, schedule: Q01DX009 (ip), vehicle: saline with Tween-80): 130 % of control | survivor count (dose: 18.8 mg/kg/injection, schedule: Q01DX009 (ip), vehicle: saline sonified): 5 of 6 | survivor count (dose: 37.5 mg/kg/injection, schedule: Q01DX009 (ip), vehicle: saline sonified): 4 of 6 | survivor count (dose: 75.0 mg/kg/injection, schedule: Q01DX009 (ip), vehicle: saline sonified): 6 of 6 | survivor count (dose: 150.0 mg/kg/injection, schedule: Q01DX001 (ip), vehicle: saline sonified): 6 of 6 | survivor count (dose: 150.0 mg/kg/injection, schedule: Q01DX009 (ip), vehicle: saline sonified): 4 of 6 | survivor count (dose: 300.0 mg/kg/injection, schedule: Q01DX001 (ip), vehicle: saline sonified): 5 of 6

COc1ccc(/C=C/c2ccc3ccccc3[n+]2C)c(OC)c1OC
T/C (dose: 10.0 mg/kg/injection, schedule: Q01DX009 (ip), vehicle: saline): 126 % of control

C=C1C(=O)OC2C=C(C)C3C(O)CC(C)(O)C3CC12 (stereo not drawn)
survivor count [6]: 10 of 10 | survivor count (dose: 400.0 mg/kg/injection, schedule: Q01DX009 (ip), vehicle: Klucel (hydroxypropylcellulose) (HPC)): 5 of 10

CCC(=O)O[C@H]1CC[C@H]2[C@@H]3[C@@H](C)CC4=CC(=O)CC[C@]4(C)[C@H]3CC[C@]12C
survivor count (dose: 200.0 mg/kg/injection, schedule: Q01DX009 (ip), vehicle: saline with Tween-80): 10 of 10 | survivor count [8]: 10 of 10

[Br][Ga]([Br])[Br]
survivor count (dose: 100.0 mg/kg/injection, schedule: Q01DX009 (ip), vehicle: saline): 10 of 10

O=C(CO)c1ccc([N+](=O)[O-])cc1
survivor count (dose: 6.25 mg/kg/injection, schedule: Q01DX009 (ip), vehicle: saline with Tween-80): 10 of 10

CC(C)C(Br)C(=O)NCC(=O)NCC(=O)O (stereo not drawn)
survivor count [4]: 10 of 10

Cc1cc(O)c2c(c1O)C(=O)c1cccc(O)c1C2=O
survivor count (dose: 3.0 mg/kg/injection, schedule: Q01DX009 (ip), vehicle: Klucel (hydroxypropylcellulose) (HPC)): 5 of 10 | survivor count (dose: 6.0 mg/kg/injection, schedule: Q01DX009 (ip), vehicle: Klucel (hydroxypropylcellulose) (HPC)): 0 of 10 | survivor count (dose: 12.0 mg/kg/injection, schedule: Q01DX009 (ip), vehicle: Klucel (hydroxypropylcellulose) (HPC)): 0 of 10

COc1ccc(S(=O)(=O)NC(=S)S)cc1
survivor count [2]: 6 of 10 | survivor count [3]: 3 of 10

NC(Cc1cc([N+](=O)[O-])ccc1CN(CCCl)CCCl)C(=O)O (stereo not drawn)
survivor count (dose: 25.0 mg/kg/injection, schedule: Q01DX001 (ip), vehicle: Klucel (hydroxypropylcellulose) (HPC)): 10 of 10

CC(C)(C)OC(=O)n1cnc(CC(NC(=O)OCc2ccccc2)C(=O)O)c1 (stereo not drawn)
survivor count [8]: 10 of 10

COc1cc2c(cc1OC)C(C#N)C2 (stereo not drawn)
survivor count [7]: 5 of 10 | survivor count (dose: 50.0 mg/kg/injection, schedule: Q01DX009 (ip), vehicle: Klucel (hydroxypropylcellulose) (HPC)): 6 of 10 | survivor count [5]: 0 of 10 | survivor count [6]: 0 of 10

CC(=O)NNC(=O)c1ccccc1
survivor count (dose: 100.0 mg/kg/injection, schedule: Q#A X018 (ip), vehicle: water): 3 of 6

Nc1ncnc2c1c1c(=O)[nH]cnc1n2C1OC(CO)C(O)C1O (stereo not drawn)
survivor count (dose: 12.5 mg/kg/injection, schedule: Q01DX009 (ip), vehicle: Klucel (hydroxypropylcellulose) (HPC)): 10 of 10 | survivor count [7]: 10 of 10 | survivor count [5]: 10 of 10

CC(=O)Nc1cc(F)c([N+](=O)[O-])cc1[N+](=O)[O-]
survivor count (dose: 5.0 mg/kg/injection, schedule: Q01DX009 (ip), vehicle: saline with Tween-80): 6 of 6 | survivor count (dose: 10.0 mg/kg/injection, schedule: Q01DX009 (ip), vehicle: saline with Tween-80): 6 of 6
